Data as given in PubChem BioAssay AID1259299 (Sanger Institute, 2017)
Shown is an unselected part of 794 reagents tested. 9 of them (1.1%) were called active. 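Calls rest on knock-down alone; synergy scores play no part in calls, and no gene passed the synergy cut.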 No viability above 1 is reported: the scale is capped. Further read-outs or replicates are left out here. No sequences are given here. Not given: the amount of reagent, the time to read-out.

Assay: 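Knock-down screen of kinome and colorectal mutation genes alongside three targeted drugs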 (primary screen)
Cells: human CAR1 colorectal cancer cells
Knock-down reagent: siRNA pool against human genes
Challenge: anchor drug BYL719 1 µM, cetuximab 5 µg/ml or trametinib 10 nM, or DMSO vehicle alone; exposure length not given
Read-out: 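Mean replicate viability versus non-targeting controls, turned into robust z-scores, plus drug synergy scores for BYL719, cetuximab and trametinib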
Reading the numbers: viability robust z-score, knock-down alone and viability, knock-down alone (DMSO): higher = more viable cells
Active means: 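Essential when viability robust z-score with knock-down alone (DMSO) is below -3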
Meaning of the calls: active = essential (knock-down alone); inactive = no change

gene symbol	viability robust z-score, knock-down alone	viability, knock-down alone (DMSO) (fraction of control)	call
STK33	-0.556	0.876	inactive
ATP23	-0.0731	0.92	inactive
SBK1	0.789	1	inactive
PDXK	0.789	1	inactive
PRKD1	0.16	0.942	inactive
FN3KRP	-4.35	0.526	active
PHKA2	-0.69	0.863	inactive
CHKA	-0.78	0.855	inactive
NUAK1	0.117	0.938	inactive
CASP8	0.789	1	inactive
CASK	0.789	1	inactive
CDKN2B	0.789	1	inactive
CDC7	-0.981	0.837	inactive
PKMYT1	0.789	1	inactive
RPS6KB1	0.789	1	inactive
MAP4K2	0.789	1	inactive
INSRR	0.687	0.991	inactive
ACVR1B	0.21	0.947	inactive
KHK	-0.132	0.915	inactive
MARK2	0.4	0.964	inactive
PRKAR1B	-1.06	0.829	inactive
STRADB	-1.01	0.834	inactive
LMTK2	-0.0633	0.921	inactive
RBKS	0.789	1	inactive
ZC3H11A	0.789	1	inactive
DYRK3	0.46	0.97	inactive
N4BP2	0.789	1	inactive
FLT1	-0.503	0.881	inactive
STKLD1	0.789	1	inactive
SPHK2	0.605	0.983	inactive
STYK1	-0.475	0.883	inactive
PRKD3	-1.05	0.83	inactive
NEK10	0.789	1	inactive
ALPK2	0.789	1	inactive

Entries above with an active call, once more:
gene symbol	viability robust z-score, knock-down alone	viability, knock-down alone (DMSO) (fraction of control)	call
FN3KRP	-4.35	0.526	active
